Source: the supplement of paper PMC11060735
Several values for one entry are separate records, joined by “and”; a condition that tells them apart may be missing. Identical values can stand only once. Counter-ions that a name gives are not always drawn. ± gives the standard deviation of the averaged measurements. Over roughly 1,800 compounds, “GFP- (p16Ink4a-) cell count relative to negative-control wells” has its median near 0.99; the lowest 2% begin near 0.5. Some of the results follow.

Each compound was assayed on mouse p16Ink4a+/- lung fibroblasts (INKBRITE, bleomycin-injured) (assay: GFP- (p16Ink4a-) cell count relative to negative-control wells (fold of vehicle); higher = more p16Ink4a- cells surviving). Settings: 1 µM; 3 days.

Row | Structure (SMILES) | GFP-
1 | CC(C)c1cc(C(=O)N2Cc3ccc(CN4CCN(C)CC4)cc3C2)c(O)cc1O [Onalespib] | 0.616
2 | COc1ccc(-c2cc(=O)c3c(O)cc(O)cc3o2)cc1O [Diosmetin] | 1.1
3 | Oc1ncc(F)c(O)n1 [Fluorouracil] | 0.733
4 | O=C1C[C@@H](c2ccc(O)cc2)Oc2cc(O)cc(O)c21 [Naringenin] | 0.938
5 | COc1cnc(NS(=O)(=O)c2ccc(N)cc2)nc1 [Sulfameter] | 0.919
6 | Cc1cc(CN2CCN(c3c(Br)cnc4[nH]c(-c5ccc(N6CCN(C)CC6)cc5)nc34)CC2)no1 | 0.664 ± 0.17
7 | CN(C)Cc1c(C(=O)NCCOc2ccc(C(=O)NO)cc2)oc2ccccc12 [Abexinostat] | 0.637 ± 0.031
8 | COc1ccc(-n2c(C)c([N+](=O)[O-])c3ccc(O)cc32)cc1 | 1
9 | CC(=O)/N=c1/sc(S(N)(=O)=O)nn1C [Methazolamide] | 1.16
10 | CCCCCCCCc1ccc(CCC(N)(CO)CO)cc1 [Fingolimod] | 1.22
11 | CC[C@@H](C)Nc1cc(C(=O)NC2CC3CCC(C2)N3c2ccc(C(=O)C3CC3)cn2)c(C)cc1C(N)=O (some centres undefined) | 0.518
12 | COC(=O)Nc1ccc(-c2nc(N3CCOCC3)c3cnn(C4CCN(C(=O)OC)CC4)c3n2)cc1 | 1.02
13 | Clc1ccc(COC(Cn2ccnc2)c2ccc(Cl)cc2Cl)cc1 (centres undefined) [Econazole] | 1.06
14 | Cc1ccc(-c2c(-c3nn(C)c4ncnc(N5CC[C@H](N6CCCCC6)C5)c34)cnn2C)cc1 | 1.07
15 | CC1(C)O[C@@H]2C[C@H]3[C@@H]4C[C@H](F)C5=CC(=O)C=C[C@]5(C)[C@@]4(F)[C@@H](O)C[C@]3(C)[C@]2(C(=O)CO)O1 [Fluocinolone Acetonide] | 1
16 | Cc1nc(NC(=O)N2CCC[C@H]2C(N)=O)sc1-c1csc(C(C)(C)C)n1 | 1.03
17 | CCOC(=O)C1=C(C)N=C(C)/C(=C(/O)OCC)C1c1ccccc1/C=C/C(=O)OC(C)(C)C (centres undefined) [Lacidipine] | 1.08
18 | O=C(O)c1ccccc1 [Benzoic Acid] | 1.05
19 | CC(=O)Nc1nc2c(Oc3cc(-c4ccc(C(F)(F)F)cc4)ncn3)cccc2s1 | 0.87
20 | O=C1c2ccccc2-c2[nH]nc3cccc1c23 [2,6-Dihydroanthra/1,9-Cd/Pyrazol-6-One] | 1.08
21 | CCc1nc(N)nc(N)c1-c1ccc(Cl)cc1 [Pyrimethamine] | 1

Row | Structure (SMILES) | GFP-
22 | O=C1C(Cl)=C(N2CCOCC2)C(=O)N1c1ccc(Cl)c(Cl)c1 | 1.05
23 | Cc1cnc(C(=O)NCCc2ccc(S(=O)(=O)NC(=O)NC3CCCCC3)cc2)cn1 [Glipizide] | 1.11
24 | CCOc1ccc2ccccc2c1C(=O)N[C@@H]1C(=O)N2[C@@H]1SC(C)(C)[C@@H]2C(=O)O [Nafcillin Sodium] | 0.94
25 | O=C(O)c1cccc(-c2noc(-c3ccccc3F)n2)c1 [Ataluren] | 1.07
26 | CO/C(O)=C1\C(C)=NC(C)=C(C(=O)OCCN2CCN(C(c3ccccc3)c3ccccc3)CC2)C1c1cccc([N+](=O)[O-])c1 (centres undefined) [Manidipine] | 0.985 and 0.964
27 | O=c1c(O)c(-c2cc(O)c(O)c(O)c2)oc2cc(O)cc(O)c12 [Myricetin] | 1
28 | C[C@]12C=CC(=O)C=C1CC[C@@H]1[C@@H]2[C@@H](O)C[C@@]2(C)[C@H]1CC[C@]2(O)C(=O)CO [Prednisolone] | 0.983
29 | CCCCNC(=O)NS(=O)(=O)c1ccc(C)cc1 [Tolbutamide] | 0.985
30 | CN1C(C(=O)Nc2ccccn2)=C(O)c2sccc2S1(=O)=O [Tenoxicam] | 1.07
31 | COc1cc(-c2ncn(/C=C\C(=O)OC(C)C)n2)cc(C(F)(F)F)c1 | 0.671
32 | O=C(Nc1ccccc1-c1cn2c(CN3CCNCC3)csc2n1)c1cnc2ccccc2n1 | 0.752 and 0.432
33 | COc1c(C)c2c(c(O)c1C/C=C(\C)CCC(=O)O)C(=O)OC2 [Mycophenolic Acid] | 0.718
34 | C=CC[N+]1([C@H]2C[C@H]3[C@@H]4CC[C@H]5C[C@H](O)[C@@H](N6CCOCC6)C[C@]5(C)[C@H]4CC[C@]3(C)[C@H]2OC(C)=O)CCCC1 [Rocuronium] | 0.894
35 | C/C(=C\C(=O)Nc1ccccc1C(=O)O)c1ccc2ccccc2c1 | 1.23
36 | Nc1ccccc1NC(=O)c1ccc(CNc2nccc(-c3cccnc3)n2)cc1 [Mocetinostat] | 0.436 ± 0.22
37 | C#Cc1cccc(Nc2ncnc3cc(OCCOC)c(OCCOC)cc23)c1 [Erlotinib] | 0.287
38 | COc1ccc(-c2coc3cc(O)ccc3c2=O)cc1 [Formononetin] | 0.986
39 | COc1cc(O)cc([C@@H]2CC(=O)c3c(O)cc(O[C@@H]4O[C@H](CO)[C@@H](O)[C@H](O)[C@H]4O[C@@H]4O[C@@H](C)[C@H](O)[C@@H](O)[C@H]4O)cc3O2)c1 [Neohesperidin] | 0.932
40 | CCCCOc1cc(C(=O)NCCN(CC)CC)c2ccccc2n1 [Cinchocaine] | 0.998
41 | O=C1CCc2ccc(OCCCCN3CCN(c4cccc(Cl)c4Cl)CC3)cc2N1 [Aripiprazole] | 0.94
42 | O=C(O)c1ccc2c(c1)nc(Nc1cccc(Cl)c1)c1ccncc12 [Silmitasertib] | 1.12

Row | Structure (SMILES) | GFP-
43 | CC(C)NCC(O)COc1cccc2ccccc12 (centres undefined) [Propranolol] | 0.987
44 | CCCCc1nc2cc(/C=C/C(=O)NO)ccc2n1CCN(CC)CC [Pracinostat] | 0.53 ± 0.063
45 | COc1ccccc1Oc1c(NS(=O)(=O)c2ccc(C(C)(C)C)cc2)nc(-c2ncccn2)nc1OCCO [Bosentan] | 0.939
46 | CC1(C)O[C@@H]2[C@@H](CO[C@@]3(COS(N)(=O)=O)OC(C)(C)O[C@@H]23)O1 [Topiramate] | 1.11
47 | N#Cc1c(Oc2ccc(F)c(NC(=O)Cc3cccc(C(F)(F)F)c3)c2)ccc2nc(NC(=O)C3CC3)sc12 | 1.05
48 | CC(C)C1CCC(C(=O)N[C@H](Cc2ccccc2)C(=O)O)CC1 (some centres undefined) [Nateglinide] | 1.06
49 | CCCCCCCCCCCCCCCCO [1-Hexadecanol] | 0.837
50 | Nc1ccn([C@@H]2O[C@H](CO)[C@@H](O)[C@@H]2O)c(=O)n1 [Cytarabine] | 0.757
51 | COc1cccc2c1[O][Mn]13([Cl])<-[N](=C2)CC[N]->1=Cc1cccc(OC)c1[O]3 | 1.04
52 | CCCCOc1ccc(CC(=O)NO)cc1 [Bufexamac] | 0.962
53 | Clc1ccccc1C(c1ccccc1)(c1ccccc1)n1ccnc1 [Clotrimazole] | 0.983
54 | Cc1cc(C)cc(NC(=O)Cc2ccc(OC(C)(C)C(=O)O)cc2)c1 [Efaproxiral Sodium] | 1.07
55 | COc1cc2c(cc1-c1c(C)noc1C)ncc1nc(O)n([C@H](C)c3ccccn3)c12 | 0.997 ± 0.029
56 | COc1ccc2c(c1)c(CC(=O)O)c(C)n2C(=O)c1ccc(Cl)cc1 [Indomethacin] | 0.977
57 | COc1ccccc1OCC(O)COC(N)=O (centres undefined) [Methocarbamol] | 1.04
58 | O=C(c1cn(Cc2cncn2Cc2ccc(Br)cc2)cc1-c1cccc2ccccc12)N1CCOCC1 | 0.845
59 | NC(=O)NO [Hydroxyurea] | 0.929
60 | O=C(N/N=C/c1ccc(O)c(O)c1)c1cc2ccccc2cc1O [Dynasore] | 1.14
61 | CN1CCN(C2=Nc3cc(Cl)ccc3Nc3ccccc32)CC1 [Clozapine] | 1.12
62 | C[C@H](Nc1ncnc2[nH]cnc12)c1cc2cccc(Cl)c2c(=O)n1-c1ccccc1 | 0.96
63 | CCOC(=O)c1ccc(OC(=O)CCCCCN=C(N)N)cc1 [Gabexate] | 1

Row | Structure (SMILES) | GFP-
64 | Nc1ccc(N=Nc2ccccc2)c(N)n1 [Phenazopyridine] | 1.03
65 | Nc1cccc2c1CN(C1CCC(=O)NC1=O)C2=O (centres undefined) [Lenalidomide] | 1.03
66 | Cn1cnc2c(F)c(Nc3ccc(Br)cc3F)c(C(=O)NOCCO)cc21 | 0.713
67 | Cc1cc(O)c2c(c1)C(=O)c1cc(O)cc(O)c1C2=O [Emodin] | 0.999
68 | CS(=O)(=O)c1ccc(C(=O)Nc2ccc(Cl)c(-c3ccccn3)c2)c(Cl)c1 [Vismodegib] | 1.15
69 | Cn1ncnc1[C@H]1c2nnc(O)c3cc(F)cc(c23)N[C@@H]1c1ccc(F)cc1 | 0.616 ± 0.066
70 | COc1ccc(CNCc2cccc3ccccc23)cc1 | 1.11
71 | COC(=O)C1=C(C)N=C(C)/C(=C(/O)OC)C1c1ccccc1[N+](=O)[O-] (centres undefined) [Nifedipine] | 1.09
72 | CC(C)(C)NC[C@H](O)COc1nsnc1N1CCOCC1 [Timolol] | 1.22
73 | COc1cc([C@H]2Oc3cc([C@H]4Oc5cc(O)cc(O)c5C(=O)[C@@H]4O)ccc3O[C@@H]2CO)ccc1O [Silibinin A] | 1.12
74 | CCc1cc(C(N)=S)ccn1 [Ethionamide] | 1.06
75 | C[C@@H]1O[C@@H](O[C@H]2[C@H](Oc3cc(O)c4c(c3)O[C@H](c3ccc(O)cc3)CC4=O)O[C@H](CO)[C@@H](O)[C@@H]2O)[C@H](O)[C@H](O)[C@H]1O [Naringin] | 1.1
76 | C/N=C(/NC#N)NCCSCc1[nH]cnc1C [Cimetidine] | 0.976
77 | Nc1nccs1 [Aminothiazole] | 0.976
78 | NC(=O)c1cccnc1 [Nicotinamide] | 1.05
79 | Fc1cc(-c2cccc3ncc(-c4cnn(C5CCNCC5)c4)nc23)cc(F)c1CN1CCOCC1 | 0.807 ± 0.094
80 | CN(C)CCC(CSc1ccccc1)Nc1ccc(S(=O)(=O)NC(=O)c2ccc(N3CCN(Cc4ccccc4-c4ccc(Cl)cc4)CC3)cc2)cc1[N+](=O)[O-] (centres undefined) | 0.89
81 | O=C(NCC1CN(c2ccc(N3CCOCC3=O)cc2)C(=O)O1)c1ccc(Cl)s1 (centres undefined) [Rivaroxaban] | 1.06
82 | CCCCN(Cc1ccc(C(=O)NO)cc1)C(=O)Nc1ccccc1 [Nexturastat A] | 0.708 ± 0.068
83 | CCCCCCCCCCCCCCCC[N+](C)(C)C [Cetrimonium] | 0.997
84 | O=C1Cc2cc(CCN3CCN(c4nsc5ccccc45)CC3)c(Cl)cc2N1 [Ziprasidone Mesylate, Ziprasidone] | 1.09
